Results are given in words; binding and its absence hold for the method and conditions named. Some binding calls cover weakened binding; strength is not graded here. Where a sequence is shown, tags or fusion partners need not be part of it.
Biological target: human TNFα fusion protein with an N-terminal S-Tag (human) (UniProt P01375)
Assay: indirect ELISA: sp55 captured on Ni-NTA wells, S-TNF detected with S-protein-HRP

Sequences of proteins named here, by UniProt entry; tags and fusion partners are left off. Residues count along the entry.
UniProt P01375, residues 77-233: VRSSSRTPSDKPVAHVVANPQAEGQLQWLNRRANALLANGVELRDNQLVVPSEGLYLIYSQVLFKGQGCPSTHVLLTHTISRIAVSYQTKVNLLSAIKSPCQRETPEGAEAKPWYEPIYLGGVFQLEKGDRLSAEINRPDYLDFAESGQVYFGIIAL

- binding: binds
B1: sp55 address domain (human TNFR-1 ecto-domain residues 30-211) with C-terminal myc and His6 tags (receptor)
chain: DAAQPARRAVRSLVPHLGDREKRDSVCPQGKYIHPQNNSICCTKCHKGTYLYNDCPGPGQDTDCRECESGSFTASENHLRHCLSCSKCRKEMGQVEISSCTVDRDTVCGCRKNQYRHYWSENLFQCFNCSLCLNGTVHLSCQEKQNTVCTCHAGFFLRENECVSCSNCKKSLECTKLCLPQIENVKGTEDSGTTRGGPEQKLISEEDLNSAVDHHHHHH

Source: patent US20040081647A1
